Test results published in ChEMBL document CHEMBL4402533 (Eur J Med Chem, 2019).

Test system: HeLa
Assay: Antiproliferative activity against human HeLa cells
Assay type: functional, cell-based

- IC50: 1.7 µM
Compound: COc1cccc2c1C(=O)c1c(O)c3c(c(O)c1C2=O)C[C@@](O)(C(=O)CO)C[C@@H]3O[C@H]1C[C@H](N)[C@H](O)[C@H](C)O1 [DOXORUBICIN]
